From publication PMC11358020
No constants are given. Whether binding was seen depends on the method and setting. In cells and extracts the contact can be indirect. Some entries that bind do so weakly or less than the wild type.

Amino acid sequences for entries named in this document (tags omitted).
UniProt Q96L96: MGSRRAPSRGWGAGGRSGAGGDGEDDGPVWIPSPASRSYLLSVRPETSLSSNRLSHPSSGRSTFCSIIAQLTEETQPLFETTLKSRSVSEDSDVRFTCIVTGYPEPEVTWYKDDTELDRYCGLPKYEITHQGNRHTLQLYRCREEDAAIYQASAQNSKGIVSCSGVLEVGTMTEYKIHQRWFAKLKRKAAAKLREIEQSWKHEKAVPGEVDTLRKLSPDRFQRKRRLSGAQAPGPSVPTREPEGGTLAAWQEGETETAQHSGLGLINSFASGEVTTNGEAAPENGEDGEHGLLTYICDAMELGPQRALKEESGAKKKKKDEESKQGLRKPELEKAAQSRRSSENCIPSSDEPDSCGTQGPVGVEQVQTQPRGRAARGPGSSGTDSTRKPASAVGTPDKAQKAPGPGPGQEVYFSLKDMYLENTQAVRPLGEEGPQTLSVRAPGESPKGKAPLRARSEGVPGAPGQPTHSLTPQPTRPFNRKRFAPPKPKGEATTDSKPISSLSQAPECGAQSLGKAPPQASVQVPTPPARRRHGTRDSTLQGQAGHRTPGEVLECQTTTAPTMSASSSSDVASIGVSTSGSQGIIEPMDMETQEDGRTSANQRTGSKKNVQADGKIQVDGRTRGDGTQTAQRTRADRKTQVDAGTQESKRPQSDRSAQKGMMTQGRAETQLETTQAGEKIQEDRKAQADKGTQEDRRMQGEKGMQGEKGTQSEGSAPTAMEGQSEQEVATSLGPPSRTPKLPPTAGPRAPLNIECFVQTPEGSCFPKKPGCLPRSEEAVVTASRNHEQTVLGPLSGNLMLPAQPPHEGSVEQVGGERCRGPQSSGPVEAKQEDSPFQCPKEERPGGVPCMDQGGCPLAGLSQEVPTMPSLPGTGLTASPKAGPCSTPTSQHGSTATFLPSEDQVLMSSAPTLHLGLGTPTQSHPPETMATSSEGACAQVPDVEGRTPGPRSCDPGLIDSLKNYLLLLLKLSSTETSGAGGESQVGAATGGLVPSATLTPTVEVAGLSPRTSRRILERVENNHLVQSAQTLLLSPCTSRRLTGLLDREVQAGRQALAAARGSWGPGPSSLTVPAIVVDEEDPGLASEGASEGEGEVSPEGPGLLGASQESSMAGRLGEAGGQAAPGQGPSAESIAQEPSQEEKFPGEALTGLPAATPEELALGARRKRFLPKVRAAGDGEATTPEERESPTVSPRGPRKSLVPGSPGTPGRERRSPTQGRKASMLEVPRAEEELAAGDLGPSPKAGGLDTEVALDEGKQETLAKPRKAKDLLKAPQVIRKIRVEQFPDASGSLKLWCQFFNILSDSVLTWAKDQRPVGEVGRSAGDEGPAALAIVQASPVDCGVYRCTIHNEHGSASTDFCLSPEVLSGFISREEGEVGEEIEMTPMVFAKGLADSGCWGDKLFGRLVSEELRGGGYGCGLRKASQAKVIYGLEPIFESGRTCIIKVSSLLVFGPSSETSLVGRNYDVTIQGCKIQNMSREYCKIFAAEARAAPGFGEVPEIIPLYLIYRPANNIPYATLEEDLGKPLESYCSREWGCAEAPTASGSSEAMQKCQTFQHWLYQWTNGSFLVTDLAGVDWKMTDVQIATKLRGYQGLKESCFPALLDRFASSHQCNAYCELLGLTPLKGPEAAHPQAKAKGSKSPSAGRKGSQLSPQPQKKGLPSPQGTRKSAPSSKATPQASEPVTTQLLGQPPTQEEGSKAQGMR

Biological target: sequestosome-1 (SQSTM1), endogenous (human (endogenous in hPSC-derived cardiomyocytes)) (UniProt Q13501)
Test: co-IP; reverse co-IP: 2 mg lysate of metabolically purified ALPK3–SBP3×FLAG hPSC CMs immunoprecipitated 3 h at 4 °C with anti-SQSTM1 antibody, Protein G Dynabeads; western blot with anti-FLAG M2 or anti-SQSTM1

## ALPK3–SBP3×FLAG (endogenous alpha kinase 3 with a C-terminal streptavidin-binding peptide 3×FLAG tag) (from UniProt Q96L96 1-1705)
  binding: binds
